Publication PMC8396604
These are yes or no findings as the source states them, for the method shown. In cells and extracts the contact can be indirect. Here binding means that the protein was enriched with, or labelled near, the bait; the list need not be complete.

Chains of the proteins cited; added tags and fusions are not shown.
UniProt P80206: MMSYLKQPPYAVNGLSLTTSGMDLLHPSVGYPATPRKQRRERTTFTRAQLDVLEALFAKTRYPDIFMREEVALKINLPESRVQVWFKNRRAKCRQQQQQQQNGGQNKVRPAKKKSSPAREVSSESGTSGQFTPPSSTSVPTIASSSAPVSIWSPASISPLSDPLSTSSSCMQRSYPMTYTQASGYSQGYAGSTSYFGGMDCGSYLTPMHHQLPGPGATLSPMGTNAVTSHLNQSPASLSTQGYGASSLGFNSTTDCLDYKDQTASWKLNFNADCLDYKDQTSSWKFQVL
UniProt Q91VC3: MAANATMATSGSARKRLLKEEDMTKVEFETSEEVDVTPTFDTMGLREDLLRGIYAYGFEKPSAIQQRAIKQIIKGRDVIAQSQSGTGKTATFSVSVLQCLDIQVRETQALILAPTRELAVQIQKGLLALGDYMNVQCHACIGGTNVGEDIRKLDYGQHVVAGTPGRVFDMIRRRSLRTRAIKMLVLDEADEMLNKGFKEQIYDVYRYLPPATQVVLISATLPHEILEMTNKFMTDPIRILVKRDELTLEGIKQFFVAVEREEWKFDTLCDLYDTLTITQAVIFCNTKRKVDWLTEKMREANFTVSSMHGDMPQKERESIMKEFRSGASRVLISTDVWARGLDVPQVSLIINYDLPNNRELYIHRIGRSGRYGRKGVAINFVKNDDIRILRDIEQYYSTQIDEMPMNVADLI
UniProt B2RY56: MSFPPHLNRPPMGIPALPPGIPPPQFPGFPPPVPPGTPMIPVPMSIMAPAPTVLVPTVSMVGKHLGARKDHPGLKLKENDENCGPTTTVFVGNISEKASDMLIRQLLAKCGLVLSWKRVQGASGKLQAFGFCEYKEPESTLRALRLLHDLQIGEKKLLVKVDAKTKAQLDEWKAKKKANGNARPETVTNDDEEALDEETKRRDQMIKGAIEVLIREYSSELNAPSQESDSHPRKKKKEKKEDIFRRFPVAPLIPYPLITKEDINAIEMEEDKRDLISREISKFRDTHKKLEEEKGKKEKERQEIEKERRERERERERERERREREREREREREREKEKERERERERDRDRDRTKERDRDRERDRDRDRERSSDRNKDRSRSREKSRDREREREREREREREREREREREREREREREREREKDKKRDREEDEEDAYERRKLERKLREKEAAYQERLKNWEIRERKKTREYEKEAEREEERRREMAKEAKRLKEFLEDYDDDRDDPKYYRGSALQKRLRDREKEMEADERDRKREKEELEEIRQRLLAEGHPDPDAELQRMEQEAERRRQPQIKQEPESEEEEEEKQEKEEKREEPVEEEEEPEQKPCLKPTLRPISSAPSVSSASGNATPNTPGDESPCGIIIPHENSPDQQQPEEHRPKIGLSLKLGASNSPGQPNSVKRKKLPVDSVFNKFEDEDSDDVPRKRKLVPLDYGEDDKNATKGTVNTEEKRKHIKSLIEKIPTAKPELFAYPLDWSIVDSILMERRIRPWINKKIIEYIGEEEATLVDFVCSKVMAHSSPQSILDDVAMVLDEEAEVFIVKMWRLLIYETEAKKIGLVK
UniProt Q6P4T2: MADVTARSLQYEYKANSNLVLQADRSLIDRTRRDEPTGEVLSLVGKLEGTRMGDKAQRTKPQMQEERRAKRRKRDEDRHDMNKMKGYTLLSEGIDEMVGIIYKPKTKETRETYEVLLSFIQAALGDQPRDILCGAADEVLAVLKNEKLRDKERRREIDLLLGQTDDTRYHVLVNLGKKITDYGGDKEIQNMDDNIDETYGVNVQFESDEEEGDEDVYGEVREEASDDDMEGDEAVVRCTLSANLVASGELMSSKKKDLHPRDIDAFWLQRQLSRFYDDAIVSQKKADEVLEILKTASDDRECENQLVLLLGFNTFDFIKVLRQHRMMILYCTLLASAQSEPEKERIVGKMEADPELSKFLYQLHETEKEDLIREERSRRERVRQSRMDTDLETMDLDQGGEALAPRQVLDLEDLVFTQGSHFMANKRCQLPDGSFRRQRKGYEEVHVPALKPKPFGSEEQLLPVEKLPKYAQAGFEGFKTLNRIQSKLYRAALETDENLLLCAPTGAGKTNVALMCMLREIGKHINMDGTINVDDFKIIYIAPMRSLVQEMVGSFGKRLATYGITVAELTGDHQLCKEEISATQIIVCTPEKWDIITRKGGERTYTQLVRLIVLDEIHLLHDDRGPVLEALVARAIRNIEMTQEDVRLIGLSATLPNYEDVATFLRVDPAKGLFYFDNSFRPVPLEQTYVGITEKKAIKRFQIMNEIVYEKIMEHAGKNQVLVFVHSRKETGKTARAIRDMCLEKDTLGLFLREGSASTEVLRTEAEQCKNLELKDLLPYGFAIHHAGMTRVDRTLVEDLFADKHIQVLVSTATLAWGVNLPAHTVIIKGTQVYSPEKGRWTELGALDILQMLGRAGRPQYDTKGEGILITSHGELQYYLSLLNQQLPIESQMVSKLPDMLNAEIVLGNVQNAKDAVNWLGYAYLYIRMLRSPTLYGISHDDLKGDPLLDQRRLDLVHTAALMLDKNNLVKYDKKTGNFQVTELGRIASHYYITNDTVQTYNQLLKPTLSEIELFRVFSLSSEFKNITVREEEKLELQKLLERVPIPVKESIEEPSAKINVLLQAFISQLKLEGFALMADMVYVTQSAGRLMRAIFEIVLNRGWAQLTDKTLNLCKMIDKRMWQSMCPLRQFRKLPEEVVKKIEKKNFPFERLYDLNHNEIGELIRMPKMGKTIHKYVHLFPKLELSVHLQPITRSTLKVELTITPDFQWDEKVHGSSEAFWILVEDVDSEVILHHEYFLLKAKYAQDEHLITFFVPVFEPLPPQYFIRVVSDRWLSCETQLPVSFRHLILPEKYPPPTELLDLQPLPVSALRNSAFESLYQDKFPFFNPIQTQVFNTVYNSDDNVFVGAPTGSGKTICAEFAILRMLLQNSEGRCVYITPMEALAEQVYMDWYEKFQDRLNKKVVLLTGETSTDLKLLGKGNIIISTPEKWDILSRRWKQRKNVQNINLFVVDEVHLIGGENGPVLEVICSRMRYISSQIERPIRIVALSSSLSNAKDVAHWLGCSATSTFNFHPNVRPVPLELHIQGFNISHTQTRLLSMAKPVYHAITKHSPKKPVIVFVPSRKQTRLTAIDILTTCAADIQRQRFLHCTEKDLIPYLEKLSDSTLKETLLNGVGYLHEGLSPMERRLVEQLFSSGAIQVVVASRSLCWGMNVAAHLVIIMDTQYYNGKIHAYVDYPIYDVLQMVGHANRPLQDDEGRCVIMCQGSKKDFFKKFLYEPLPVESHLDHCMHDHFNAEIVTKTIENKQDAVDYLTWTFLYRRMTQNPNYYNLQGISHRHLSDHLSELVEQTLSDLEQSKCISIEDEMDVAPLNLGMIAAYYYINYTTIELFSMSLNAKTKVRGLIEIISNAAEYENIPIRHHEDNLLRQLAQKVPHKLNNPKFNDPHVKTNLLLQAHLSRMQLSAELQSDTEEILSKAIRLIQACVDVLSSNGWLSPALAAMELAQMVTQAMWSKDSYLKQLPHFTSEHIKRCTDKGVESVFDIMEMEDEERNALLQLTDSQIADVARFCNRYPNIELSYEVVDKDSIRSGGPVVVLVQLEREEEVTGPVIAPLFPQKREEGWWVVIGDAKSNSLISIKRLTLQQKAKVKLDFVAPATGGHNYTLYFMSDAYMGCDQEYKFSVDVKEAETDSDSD
UniProt B1AZI6: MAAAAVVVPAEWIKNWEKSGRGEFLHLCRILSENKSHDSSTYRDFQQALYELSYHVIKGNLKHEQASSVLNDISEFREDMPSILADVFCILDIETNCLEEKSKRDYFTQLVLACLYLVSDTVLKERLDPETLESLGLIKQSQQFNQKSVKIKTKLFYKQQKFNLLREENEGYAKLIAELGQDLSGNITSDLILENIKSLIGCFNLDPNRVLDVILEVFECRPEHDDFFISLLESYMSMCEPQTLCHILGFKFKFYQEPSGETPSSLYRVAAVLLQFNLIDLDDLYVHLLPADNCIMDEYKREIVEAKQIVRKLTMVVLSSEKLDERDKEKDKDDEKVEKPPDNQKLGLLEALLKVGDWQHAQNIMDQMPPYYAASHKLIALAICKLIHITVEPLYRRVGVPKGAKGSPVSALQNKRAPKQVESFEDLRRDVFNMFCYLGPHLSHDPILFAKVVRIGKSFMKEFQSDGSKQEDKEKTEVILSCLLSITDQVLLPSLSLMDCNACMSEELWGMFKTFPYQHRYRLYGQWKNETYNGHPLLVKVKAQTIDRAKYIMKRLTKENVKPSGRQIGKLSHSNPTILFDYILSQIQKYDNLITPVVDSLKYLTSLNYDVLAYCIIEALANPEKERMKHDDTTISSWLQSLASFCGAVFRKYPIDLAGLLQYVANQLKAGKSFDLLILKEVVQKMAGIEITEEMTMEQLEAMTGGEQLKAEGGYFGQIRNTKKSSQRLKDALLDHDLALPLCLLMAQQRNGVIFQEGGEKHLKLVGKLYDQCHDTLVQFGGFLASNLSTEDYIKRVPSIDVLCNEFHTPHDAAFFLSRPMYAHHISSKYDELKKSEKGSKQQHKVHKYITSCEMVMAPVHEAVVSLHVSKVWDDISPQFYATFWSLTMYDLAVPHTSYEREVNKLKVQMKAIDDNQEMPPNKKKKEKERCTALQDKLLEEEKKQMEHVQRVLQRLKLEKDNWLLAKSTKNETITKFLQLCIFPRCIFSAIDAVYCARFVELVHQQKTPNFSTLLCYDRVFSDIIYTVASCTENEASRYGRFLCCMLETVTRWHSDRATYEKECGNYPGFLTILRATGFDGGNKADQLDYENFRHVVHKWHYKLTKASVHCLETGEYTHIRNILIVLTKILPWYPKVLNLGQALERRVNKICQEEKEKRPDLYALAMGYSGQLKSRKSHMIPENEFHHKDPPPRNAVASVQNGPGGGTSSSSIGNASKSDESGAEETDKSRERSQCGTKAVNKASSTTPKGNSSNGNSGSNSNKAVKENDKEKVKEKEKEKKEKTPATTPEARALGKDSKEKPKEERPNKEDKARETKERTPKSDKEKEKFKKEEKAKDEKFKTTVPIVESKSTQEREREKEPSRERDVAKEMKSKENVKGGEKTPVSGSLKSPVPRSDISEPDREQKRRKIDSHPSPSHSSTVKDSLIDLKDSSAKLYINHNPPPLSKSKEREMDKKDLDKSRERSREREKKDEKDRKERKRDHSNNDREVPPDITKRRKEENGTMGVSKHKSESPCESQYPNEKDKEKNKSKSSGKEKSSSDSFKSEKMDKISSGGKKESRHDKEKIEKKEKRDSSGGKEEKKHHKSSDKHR

B1: ARHGEF7 (protein, UniProt Q9ES28 1-862)
chain: MNSAEQTVTWLITLGVLESPKKTISDPEVFLQASLKDGVVLCRLLERLLPGTIEKVYPEPRNESECLSNIREFLRACGASLRLETFDANDLYQGQNFNKVLSSLVTLNKVTADIGLGSDSVCARPSSHRIKSFDSLGSQSSHSRTSKLLQSQYRSLDMTDNTNSQLVVRAKFNFQQTNEDELSFSKGDVIHVTRVEEGGWWEGTHNGRTGWFPSNYVREIKPSEKPVSPKSGTLKSPPKGFDTTAINKSYYNVVLQNILETEHEYSKELQSVLSTYLRPLQTSDKLSSANTSYLMGNLEEISSFQQVLVQSLEECTKSPEAQQRVGGCFLSLMPQMRTLYLAYCANHPSAVSVLTEHSEDLGEFMETKGASSPGILVLTTGLSKPFMRLDKYPTLLKELERHMEDYHPDRQDIQKSMTAFKNLSAQCQEVRKRKELELQILTEPIRSWEGDDIKTLGSVTYMSQVTIQCAGSEEKNERYLLLFPNLLLMLSASPRMSGFIYQGKLPTTGMTITKLEDSENHRNAFEISGSMIERILVSCTSQQDLHEWVEHLQKQTKVTSVSNPTIKPHSVPSHTLPSHPLTPSSKHADSKPVALTPAYHTLPHPSHHGTPHTTISWGPLEPPKTPKPWSLSCLRPAPPLRPSAALCYKEDLSKSPKTMKKLLPKRKPERKPSDEEFAVRKSTAALEEDAQILKVIEAYCTSAKTRQTLNSTWQGTDLMHNHVLADDDQSSLDSLGRRSSLSRLEPSDLSEDSEYDSIWTAHSYRMGSASRSRKESAPQVLLPEEEKIIVEETKSNGQTVIEEKSLVDTVYALKDEVQELRQDNKKMKKSLEEEQRARKDLEKLVRKVLKNMNDPAWDETNL
B2: TNS2 (protein, UniProt Q8CGB6 1-1400)
chain: MKSSGPVERLLRALGRRDSSRATSRPRKAEPHSFREKVFRKKTPVCAVCKVTIDGTGVSCRVCKVATHRKCEAKVTSSCQALPPAELRRSTAPVRRIEHLGSTKSLNHSKQRSTLPRSFSLDPLMERRWDLDLTYVTERILAAAFPARPDEQRHRGHLRELAHVLQSKHRDKYLLFNLSEKRHDLTRLNPKVQDFGWPELHAPPLDKLCSICKAMETWLSADPQHVVVLYCKGSKGKLGVIVSAYMHYSKISAGADQALATLTMRKFCEDKVATELQPSQRRYVSYFSGLLSGSIRMNSSPLFLHYVFVPVLPAFEPNTGFQPFLKIYQSMQLVYTSGVYRIAGPGPQQLCISLEPALLLKGDVMVTCYHKGGQGTDRTLVFRVQFHTCTIHGSRLTFPKDQLDEAWADERFPFQASVEFVFSSSPEKVKGNTPRNDPSVSVDYNTTEPAVRWDSYENFNQHHEDSVDGALAHTRGPLDGSPYAQVQRVPRQTPPAPSPELPPPPMLSVSSDSGHSSTLTTEHTAESPGRPPPTAAERQELDRLLGGCGVASAGRGAGRETAILDDEEQPSVGGGLHLGMYSGHRPGLSRRCSCRQGFREPCGVPNGSYYRPEGTLERRRPPYGGYEGHPQGYAEASVEKRRLCRSLSEGPYPYAPELGKPANGDFGYRPAGYREVVILEDPGVPALCSCPACEEKLALPTAALYGLRLEREAAEGWSSEVGKPLLHPVRPGHPLPLLVPACGHHHAPMPDYGCLKPPKVGEEGHEGCSYAVCSEGRYGHSGYPALVTYGYGGAVPSYCPAYGRAPHSCGSPSEGRGYPSPGAHSPRAGSVSPGSPPYLQPRKLGYEISAEDGRDKYPLSGHLASTGPLASTESPEPSWRDGSSGHSTLPRSPRDPQCSASSELSGPSTPLHTSSPVQGKESNRRQDTTRSPSLAPTQRLSPGEALPSVVQGVAEKTPELLTSSRPEQLDPSPFSQTSAPGSPNGWPQERSPGGHTNSASPRSPVPTTLPGLRHAPWQGPRGTSDSPDGSPLTPVPTQMPWLVGSPEPPQSSPTPAFPLATSYDANGPIQPPLPEKRHLPGSGQQPSPPARSTNQHVTFASPLPDVTQPPEHPLQENQSNVKFVQDTSKFWYKPHLSRDQAIALLKDKDPGAFLIRDSHSFQGAYGLALKVATPPPSAQPWKGDPSEQLVRHFLIETGPKGVKIKGCPTEPYFGSLSALVSQHSISPISLPCCLRIPSKDPLEETPEAPVPTNMSTAADLLRQGAACSVLYLTSVETESLTGPQAVAKASSAALSCSPVPVPAIVHFKVSAQGITLTDNQRKLFFRRHYPVNSITFSSTDPQDRRWTNPDGATSKIFGFVAKKPGSPWENVCHLFAELDPDQPASAIVTFITKVLLGQRK
B3: ARVCF (protein, UniProt P98203 1-962)
chain: MEDCNVHSAASILASVKEQEARFERLTRALEQERRHVALQLERAQQPGMSSGGMVGSGQPLPMAWQQLVLQEQSPGSQASLATMPEAPEVLEETVTVEEDPGTPTSHVSIVTSEDGTTRRTETKVTKTVKTVTTRTVRQVPLGPDGLPLLDGGPPLGSFADGPLDRHYLLRGGGGPAATLSRTYHSSGGGFPDGPESRDIPSYGSLSRGLGVRPPRTGLLGPGPGDGCFTLPGRREAFPMGSESGPPSGRSLPEHFQAEPYGLEDDTRSLAADDEGGPDLEPDYSTATRRRPEYGRGLRARAFEDTADDAGELIEERPPFPAATAPLAQPERGSLGSLDRVVRRSPSVDSTRKEPRWRDPELPEVLAMLRHPVDPVKANAAAYLQHLCFENEGIKRRVRQLRGLPLLVALLDHPRAEVRRRACGALRNLSYGRDTDNKAAIRDCGGVPALVRLLRAARDNEVRELVTGTLWNLSSYEPLKMVIIDHGLQTLTHEVIVPHSGWEREPNEDSKPRDAEWTTVFKNTSGCLRNVSSDGAEARRRLRECEGLVDALLHALQSAVGRKDTDNKSVENCVCIMRNLSYHVHKEVPGADRYQEAEPGIPGSTTSQRRRKDDASCFGGKKAKEEWFHQGKKDAEMDRNFDTLDLPKRTEAAKGFELLYQPEVVRLYLSLLTESRNFNTLEAAAGALQNLSAGNWTWATYIRATVRKERGLPVLVELLQSETDKVVRAVAIALRNLSLDQRNKDLIGSYAMTELVRNVRNAQAPAHPSAHLEEDTVVAVLNTIHEIVSDSLDNARSLLQARGVPALVALVASSQSVREAKAASHVLQTVWSYKELRGALQRDGWTKSRFQSASTAKGPKGTPSSGGFDDSTLPLVDKSLDGEKSNTRDVIPMDTLGPDGYATVDRRERRTLGSDSTGDTSEKELLRPDPGRKAPPPGPSRPSVRLVDAVGDTKPQPVDSWV
B4: TMPO (protein, UniProt Q61033 1-693)
chain: MPEFLEDPSVLTKDKLKSELVANNVTLPAGEQRKDVYVQLYLQHLTARNRPPLAAGANSKGPPDFSSDEEREPTPVLGSGASVGRGRGAVGRKATKKTDKPRLEDKDDLDVTELSNEELLDQLVRYGVNPGPIVGTTRKLYEKKLLKLREQGTESRSSTPLPTVSSSAENTRQNGSNDSDRYSDNDEGKKKEHKKVKSARDCVPFSELASTPSGAFFQGISFPEISTRPPLGRTELQAAKKVQTTKRDPPRETCTDTALPGKGQTHKLAPGRSLFIPSESSYDRCVEKSSSPSSQREFAARLVSAAASPSLIRETTTTYSKDIVENICRGGKSRAQPLRAEEPGVSDQSVFSSEREVLQESERSQVISPPLAQAIRDYVNSLLVQGGVGSLPGTSDSVPTLDVENICKRLSQSSYQDSESLSPPRKVPRLSEKPARGGDSGSCVAFQNTPGSEHRSSFAKSVVSHSLTTLGVEVSKPPPQHDKIEASEPSFPLHESILKVVEEEWQQIDRQLPSVACRYPVSSIEAARILSVPKVDDEILGFISEATPRAATQASSTESCDKHLDLALCRSYEAAASALQIAAHTAFVAKSLQADISQAAQIINSDPSDAQQALRILNRTYDAASYLCDAAFDEVRMSACAMGSSTMGRRYLWLKDCKISPASKNKLTVAPFKGGTLFGGEVHKVIKKRGNKQ
B5: WDR70 (protein, UniProt Q3TWF6 1-657)
chain: MEHSGTSEVTGADTAGPDPQLAVTMGFTGFGKKARTFDLEAMFEQTRRTAVERSRKTLEAREKEEEMNREKELRKQIEDMEPAPSSSSAARERSQSSCRDTSSSDSESDDSSDSSDDELIGPPLPPKMVGESVTTVDEGTLGPLPPPLCEEGEDDDDDELDDEGEEDNPVQRIPDSHEITLRHGTKTVSALGLDPSGARLVTGGYDYDVKFWDFAGMDASFKAFRSLQPCECHQIKSLQYSNTGDMILVVSGSSQAKVIDRDGFEVMECIKGDQYIVDMANTKGHTAMLHTDSWHPKIKGEFMTCSNDATVRLWEVENPKKQKSVFKPRTMQGKKVIPTTCTYSRDGNLVAAACQNGSIQIWDRNLTVHPKFHYKQAHDPGTDTSCVAFSYDGNVLASRGGDDTLKLWDVRQFNKPLFSASDLPTLFPMTDCCFSPDDKLIVTGTSVQRGCGSGKLVFLERRTFQRVYEIHITDASVVRCLWHPKLNQIMVGTGNGLAKVYYDPNKSQRGAKLCVVKTQRKAKQAETLTQDYIITPHALPMFREPRQRSTRKQLEKDRLDPLKSHKPEPPVAGPGRGGRVGTHGGTLSSYIVKNIALDKTDDSNPREAILRHAKAAEDNPYWVSPAYSKTQPKTMFAQVESDDEESKNEPEWKKRKI

What follows are molecules tested against OTX2 homeoprotein (mouse (endogenous in adult mouse brain tissue)) (UniProt P80206) (assay: affinity purification with mass spectrometry; anti-OTX2 (ab21990) coupled to magnetic beads, lysate of pooled LV and 4V choroid plexus from four 3-month-old mice; 100 mM Tris pH 7.5, 1 mM EDTA, 100 mM NaCl, 1% NP40, 1 mM MgCl2, benzonase; 4 °C overnight; IgG co-IP as control; nano-LC-MS/MS; N = 3).

binding	Molecule
binds	B1
binds	B2
binds	B3
binds	B4
binds	B5

What follows are molecules tested against OTX2 homeoprotein (mouse (endogenous in adult mouse brain tissue)) (UniProt P80206) (assay: affinity purification with mass spectrometry; anti-OTX2 (ab21990) coupled to magnetic beads, lysates of SVZ, RMS and visual cortex pooled from ten 3-month-old wildtype mice; 20 mM Tris pH 8, 120 mM NaCl, 1% NP40, 1 mM MgCl2, 5% glycerol, benzonase; IgG co-IP as control; nano-LC-MS/MS; N = 1; hits common to the three structures).

binding	Molecule
binds	EIF4A3 (from UniProt Q91VC3 1-411)
binds	RBM25 (from UniProt B2RY56 1-838)
binds	SNRNP200 (from UniProt Q6P4T2 1-2136)
binds	THOC2 (from UniProt B1AZI6 1-1594)
